Results deposited as PubChem BioAssay AID1259314 (Drosophila RNAi Screening Center, 2017).
The deposit covers about 3,100 reagents; this is a part drawn at random. In the full data, 289 (9.3%) got an active call. 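Active includes both higher and lower ATP than plate average; check the z-score sign for direction.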 Names joined by + are all predicted targets of the reagent. Not stated in the record: the amount of reagent.

Test: 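Genes whose knock-down alters cell survival under toxic manganese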 (primary screen)
System: Drosophila S2R+ cells
Reagent: long dsRNA against Drosophila genes
Timing: 5 days (4 days knock-down, then 1 day metal exposure)
Challenge: manganese chloride added to 15 mM for 24 hours
Read-out: 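Cellular ATP measured by luciferase light, scaled to the plate mean, averaged across replicates and z-scored over plates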
Direction: mean ATP z-score: higher = more ATP than the plate average, more viable cells under manganese
Hit rule: 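Called active when the mean ATP z-score is above 1.5 or below -1.5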
Meaning of the calls: active = strong ATP change, up or down; inactive = no strong ATP change

CG6901 [DRSC16129] | mean ATP z-score: -0.61; Call: inactive
CG6901 [DRSC26477] | mean ATP z-score: 0.114; Call: inactive
robo1 [DRSC04712] | mean ATP z-score: -1.19; Call: inactive
Or94a [DRSC16772] | mean ATP z-score: -0.206; Call: inactive
CG31787 [DRSC01632] | mean ATP z-score: -0.202; Call: inactive
CG8850 [DRSC07287] | mean ATP z-score: 0.186; Call: inactive
CG8850 [DRSC25965] | mean ATP z-score: 0.991; Call: inactive
Tnpo-SR [DRSC00546] | mean ATP z-score: 0.476; Call: inactive
Tnpo-SR [DRSC38005] | mean ATP z-score: 0.789; Call: inactive
CG33958 [DRSC06472] | mean ATP z-score: 0.168; Call: inactive
CG33958 [DRSC06944] | mean ATP z-score: 1.06; Call: inactive
CG33958 [DRSC29635] | mean ATP z-score: 0.00779; Call: inactive
sut3 [DRSC07702] | mean ATP z-score: 2.03; Call: active
sut3 [DRSC24322] | mean ATP z-score: -0.0714; Call: inactive
MFS9 [DRSC15560] | mean ATP z-score: -0.397; Call: inactive
Proc-R [DRSC18410] | mean ATP z-score: 0.101; Call: inactive
Proc-R [DRSC39733] | mean ATP z-score: 0.861; Call: inactive
CG13795 [DRSC02299] | mean ATP z-score: 4.5; Call: active
CG13795 [DRSC39907] | mean ATP z-score: 2.14; Call: active
CG33969 [DRSC11777] | mean ATP z-score: -0.387; Call: inactive
CG13101 [DRSC02201] | mean ATP z-score: 0.639; Call: inactive
CG13101 [DRSC39475] | mean ATP z-score: 0.25; Call: inactive
CG30049 [DRSC21345] | mean ATP z-score: 0.217; Call: inactive
CG30049 [DRSC26709] | mean ATP z-score: 1.84; Call: active
mthl3 + mthl4 [DRSC25990] | mean ATP z-score: -0.711; Call: inactive
CG8534 [DRSC16439] | mean ATP z-score: 1.27; Call: inactive
PGRP-LA [DRSC10327] | mean ATP z-score: -0.544; Call: inactive
PGRP-LA [DRSC10414] | mean ATP z-score: -0.493; Call: inactive
CG1662 [DRSC19754] | mean ATP z-score: -1.36; Call: inactive
Smvt [DRSC15426] | mean ATP z-score: 0.122; Call: inactive
Smvt [DRSC39637] | mean ATP z-score: 1.55; Call: active
snky [DRSC09838] | mean ATP z-score: -0.54; Call: inactive
snky [DRSC39770] | mean ATP z-score: -0.756; Call: inactive
cac [DRSC20354] | mean ATP z-score: -0.13; Call: inactive
cac [DRSC39146] | mean ATP z-score: -0.0529; Call: inactive
CG17600 [DRSC20640] | mean ATP z-score: 0.0639; Call: inactive
CG17600 [DRSC22753] | mean ATP z-score: 0.168; Call: inactive
CG17600 [DRSC27203] | mean ATP z-score: 0.0379; Call: inactive
Nup50 [DRSC06827] | mean ATP z-score: -0.99; Call: inactive
Nup50 [DRSC26470] | mean ATP z-score: -0.092; Call: inactive
Gr68a [DRSC10803] | mean ATP z-score: -1.2; Call: inactive
Gr68a [DRSC39819] | mean ATP z-score: -0.367; Call: inactive
ACXB [DRSC26343] | mean ATP z-score: -1.24; Call: inactive
ACXB [DRSC39703] | mean ATP z-score: 1.33; Call: inactive
CG6696 [DRSC20004] | mean ATP z-score: -0.735; Call: inactive
CG6696 [DRSC25648] | mean ATP z-score: 0.0499; Call: inactive
Or22a [DRSC26009] | mean ATP z-score: -0.735; Call: inactive

Active calls, among the entries above:
sut3 [DRSC07702] | mean ATP z-score: 2.03; Call: active
CG13795 [DRSC02299] | mean ATP z-score: 4.5; Call: active
CG13795 [DRSC39907] | mean ATP z-score: 2.14; Call: active
CG30049 [DRSC26709] | mean ATP z-score: 1.84; Call: active
Smvt [DRSC39637] | mean ATP z-score: 1.55; Call: active
